# Assay results from patent US20250051703A1, “EGG OPENER, EX OVO TUMOR XENOGRAFT METHOD, THERAPEUTIC COMPOUND ASSAY, THERAPEUTIC COMPOUND TESTING METHOD VIA EX OVO QUAIL EGG XENOGRAFT ASSAY” (CHILDREN'S CANCER THERAPY DEVELOPMENT INSTITUTE, priority 2021, published 2025).
# For at least one compound, name, drawing or mass did not settle the structure.
# System: SF8628 human diffuse intrinsic pontine glioma (DIPG) cancer cell line
# Experiment: SF8628 xenograft CAM assay, radiance
# Format: in vivo
smiles,measurement,value
Cc1[nH]c2ccccc2c1CCNCc1ccc(/C=C/C(=O)NO)cc1 [panobinostat],dose-response in SF8628 xenograft CAM assay,dose-response relationship can be observed
